{
  "source": "paper PMC10993414",
  "about": "“Water Quality Monitoring with the Multiplexed Assay MitoOxTox for Mitochondrial Toxicity, Oxidative Stress Response, and Cytotoxicity in AREc32 Cells” (Environmental Science & Technology, 2024)",
  "key": {"[1]": {"test_system": "mitochondrial membrane potential (MMP) in AREc32 cells", "assay": "Disruption of mitochondrial membrane potential (m-MPI red/green ratio), MitoOxTox"}, "[2]": {"test_system": "AREc32 cells", "assay": "Cytotoxicity with ImageXpress high-content imaging, MitoOxTox"}, "[3]": {"test_system": "MMP disruption in AREc32 cells", "assay": "Iceberg modeling (24DNP-EQbio, 24DNP-EQchem) for MMP disruption"}, "[4]": {"conditions": "specificity ratio of MMP effect: IC10,baseline/EC10 (eq 5)"}, "[5]": {"conditions": "toxic ratio: IC10,baseline/IC10 (ImageXpress) (eq 2)"}},
  "note": "Where two headings read alike, the source gives them in different places.",
  "data": [
    {"smiles": "O=[N+]([O-])c1ccc(O)c([N+](=O)[O-])c1", "note": "[2,4-Dinitrophenol]", "values": [
      {"measurement": "SRbaseline", "setting": "[1]; [4]", "result": 102},
      {"measurement": "TR", "setting": "[2]", "result": 2.9}
    ]},
    {"smiles": "CCCCOCCO", "note": "[2-Butoxyethanol]", "values": [
      {"measurement": "SRbaseline", "setting": "[1]; [4]", "result": 1.3},
      {"measurement": "TR", "setting": "[2]", "result": 1.0}
    ]},
    {"smiles": "Cc1cc(O)ccc1Cl", "note": "[4-Chloro-3-methylphenol]", "values": [
      {"measurement": "TR", "setting": "[2]", "result": 1.3}
    ]},
    {"smiles": "CCCCCc1ccc(O)cc1", "note": "[4-Pentylphenol]", "values": [
      {"measurement": "SRbaseline", "setting": "[1]; [4]", "result": 14.0},
      {"measurement": "TR", "setting": "[2]; [5]", "result": 1.0}
    ]},
    {"smiles": "CCCCCC[C@H]1C(=O)O[C@H](C)[C@H](NC(=O)c2cccc(NC=O)c2O)C(=O)O[C@@H](C)[C@@H]1OC(=O)CC(C)C", "note": "[Antimycin A]", "values": [
      {"measurement": "TR", "setting": "[2]; [5]", "result": 2.4}
    ]},
    {"smiles": "CO/C=C(/C(=O)OC)c1ccccc1Oc1cc(Oc2ccccc2C#N)ncn1", "note": "[Azoxystrobin]", "values": [
      {"measurement": "contribution of individual chemical to 24DNP-EQbio", "setting": "[3]; WWTP effluent samples", "result": "up to 0.12%"},
      {"measurement": "SRbaseline", "setting": "[1]; [4]", "result": 64.0}
    ]},
    {"smiles": "COc1ccc2cc3[n+](cc2c1OC)CCc1cc2c(cc1-3)OCO2", "note": "[Berberine]", "values": [
      {"measurement": "SRbaseline", "setting": "[1]; [4]", "result": 285426},
      {"measurement": "TR", "setting": "[2]; [5]", "result": 53.2},
      {"measurement": "TR", "setting": "[2]; toxic ratio: IC10,baseline/IC10 (ImageXpress) (eq 2), listed as berberine", "result": 53}
    ]},
    {"smiles": "N#Cc1cc(Br)c(O)c(Br)c1", "note": "[Bromoxynil]", "values": [
      {"measurement": "SRbaseline", "setting": "[1]; [4]", "result": 41.6},
      {"measurement": "TR", "setting": "[2]", "result": 4.9}
    ]},
    {"smiles": "N#CC(C#N)=NNc1cccc(Cl)c1", "note": "[Carbonyl cyanide 3-chlorophenyl-hydrazone]", "values": [
      {"measurement": "SRbaseline", "setting": "[1]; [4]", "result": 518},
      {"measurement": "TR", "setting": "[2]; [5]", "result": 55.4}
    ]},
    {"smiles": "N#CC(C#N)=NNc1ccc(OC(F)(F)F)cc1", "note": "[Carbonyl cyanide 4-(trifluoromethoxy)phenylhydrazone]", "values": [
      {"measurement": "SRbaseline", "setting": "[1]; [4]", "result": 2016},
      {"measurement": "TR", "setting": "[2]; [5]", "result": 88.4}
    ]},
    {"smiles": "CC1=C(C(=O)Nc2ccccc2)SCCO1", "note": "[Carboxin]", "values": [
      {"measurement": "SRbaseline", "setting": "[1]; [4]", "result": 4.7}
    ]},
    {"smiles": "Cc1ccc(-c2c(Cl)nc(C#N)n2S(=O)(=O)N(C)C)cc1", "note": "[Cyazofamid]", "values": [
      {"measurement": "SRbaseline", "setting": "[1]; [4]", "result": 7.8}
    ]},
    {"smiles": "COc1cc2c(cc1OC)[C@@H]1C(=O)c3ccc4c(c3O[C@@H]1CO2)C=CC(C)(C)O4", "note": "[Deguelin]", "values": [
      {"measurement": "SRbaseline", "setting": "[1]; [4]", "result": 6647},
      {"measurement": "TR", "setting": "[2]", "result": 3.0}
    ]},
    {"smiles": "CNC(=O)/C(=N/OC)c1ccccc1COc1cc(C)ccc1C", "note": "[Dimoxystrobin]", "values": [
      {"measurement": "contribution of individual chemical to 24DNP-EQchem", "setting": "[3]; WWTP effluent samples (5 samples)", "result": "up to 82%"},
      {"measurement": "SRbaseline", "setting": "[1]; [4]", "result": 120},
      {"measurement": "TR", "setting": "[2]; [5]", "result": 0.371}
    ]},
    {"smiles": "CSC1=N[C@@](C)(c2ccccc2)C(=O)N1Nc1ccccc1", "note": "[Fenamidone]", "values": [
      {"measurement": "SRbaseline", "setting": "[1]; [4]", "result": 18.5},
      {"measurement": "TR", "setting": "[2]; [5]", "result": 1.9}
    ]},
    {"smiles": "CC(C)(C)c1ccc(CCOc2ncnc3ccccc23)cc1", "note": "[Fenazaquin]", "values": [
      {"measurement": "SRbaseline", "setting": "[1]; [4]", "result": 3030},
      {"measurement": "TR", "setting": "[2]", "result": 0.324}
    ]},
    {"smiles": "Cc1nn(C)c(Oc2ccccc2)c1C=NOCc1ccc(C(=O)OC(C)(C)C)cc1", "note": "[Fenpyroximate]", "values": [
      {"measurement": "SRbaseline", "setting": "[1]; [4]", "result": 50002},
      {"measurement": "TR", "setting": "[2]", "result": 0.9}
    ]},
    {"smiles": "CO/N=C(/C1=NOCCO1)c1ccccc1Oc1ncnc(Oc2ccccc2Cl)c1F", "note": "[Fluoxastrobin]", "values": [
      {"measurement": "SRbaseline", "setting": "[1]; [4]", "result": 16.0}
    ]},
    {"smiles": "CC(C)Oc1cccc(NC(=O)c2ccccc2C(F)(F)F)c1", "note": "[Flutolanil]", "values": [
      {"measurement": "SRbaseline", "setting": "[1]; [4]", "result": 5.0},
      {"measurement": "TR", "setting": "[2]; [5]", "result": 0.9}
    ]},
    {"smiles": "Oc1c(Cl)cc(Cl)c(Cl)c1Cc1c(O)c(Cl)cc(Cl)c1Cl", "note": "[Hexachlorophene]", "values": [
      {"measurement": "SRbaseline", "setting": "[1]", "result": 77.9},
      {"measurement": "TR", "setting": "[2]", "result": 2.0}
    ]},
    {"smiles": "CC1(C)CNC(=NN=C(/C=C/c2ccc(C(F)(F)F)cc2)/C=C/c2ccc(C(F)(F)F)cc2)NC1", "note": "[Hydramethylnon]", "values": [
      {"measurement": "SRbaseline", "setting": "[1]; [4]", "result": 37.5},
      {"measurement": "TR", "setting": "[2]", "result": 145.0},
      {"measurement": "TR", "setting": "[2]; listed as hydramethylnon", "result": 145}
    ]},
    {"smiles": "Cc1ccccc1C(=O)Nc1cccc(OC(C)C)c1", "note": "[Mepronil]", "values": [
      {"measurement": "SRbaseline", "setting": "[1]; [4]", "result": 4.1},
      {"measurement": "TR", "setting": "[2]", "result": 1.8}
    ]},
    {"smiles": "Oc1c(Cl)c(Cl)c(Cl)c(Cl)c1Cl", "note": "[Pentachlorophenol]", "values": [
      {"measurement": "SRbaseline", "setting": "[1]", "result": 8.0},
      {"measurement": "TR", "setting": "[2]", "result": 1.2}
    ]},
    {"smiles": "CO/C=C(/C(=O)OC)c1ccccc1COc1cccc(C(F)(F)F)n1", "note": "[Picoxystrobin]", "values": [
      {"measurement": "SRbaseline", "setting": "[1]; [4]", "result": 240.6},
      {"measurement": "TR", "setting": "[2]", "result": 4.0}
    ]},
    {"smiles": "COC(=O)N(OC)c1ccccc1COc1ccn(-c2ccc(Cl)cc2)n1", "note": "[Pyraclostrobin]", "values": [
      {"measurement": "contribution of individual chemical to 24DNP-EQbio", "setting": "[3]; WWTP effluent sample EU018", "result": 0.62, "unit": "%"},
      {"measurement": "contribution of individual chemical to 24DNP-EQchem", "setting": "[3]; WWTP effluent sample EU018", "result": 74, "unit": "%"},
      {"measurement": "SRbaseline", "setting": "[1]; [4]", "result": 468.8},
      {"measurement": "TR", "setting": "[2]; [5]", "result": 1.6}
    ]},
    {"smiles": "CC(C)(C)c1ccc(CSc2cnn(C(C)(C)C)c(=O)c2Cl)cc1", "note": "[Pyridaben]", "values": [
      {"measurement": "SRbaseline", "setting": "[1]; [4]", "result": 8705}
    ]},
    {"smiles": "CCOCCc1ccc(OCCN=c2[nH]cnc(CC)c2Cl)c(C)c1C", "note": "[Pyrimidifen]", "values": [
      {"measurement": "SRbaseline", "setting": "[1]; [4]", "result": 13630},
      {"measurement": "TR", "setting": "[2]; [5]", "result": 0.659}
    ]},
    {"smiles": "C=C(C)[C@H]1Cc2c(ccc3c2O[C@@H]2COc4cc(OC)c(OC)cc4[C@@H]2C3=O)O1", "note": "[Rotenone]", "values": [
      {"measurement": "SRbaseline", "setting": "[1]; [4]", "result": 17362},
      {"measurement": "TR", "setting": "[2]", "result": 381}
    ]},
    {"smiles": "CCc1nn(C)c(C(=O)NCc2ccc(C(C)(C)C)cc2)c1Cl", "note": "[Tebufenpyrad]", "values": [
      {"measurement": "SRbaseline", "setting": "[1]; [4]", "result": 10708},
      {"measurement": "TR", "setting": "[2]", "result": 0.32}
    ]},
    {"smiles": "Cc1nc(C(F)(F)F)c(C(=O)Nc2c(Br)cc(OC(F)(F)F)cc2Br)s1", "note": "[Thifluzamide]", "values": [
      {"measurement": "SRbaseline", "setting": "[1]; [4]", "result": 10.8},
      {"measurement": "TR", "setting": "[2]; [5]", "result": 1.4}
    ]},
    {"smiles": "CON=C(C(=O)OC)c1ccccc1CON=C(C)c1cccc(C(F)(F)F)c1", "note": "[Trifloxystrobin]", "values": [
      {"measurement": "SRbaseline", "setting": "[1]; [4]", "result": 14.8}
    ]}
  ]
}
